Test results published in PubChem BioAssay AID624297 (National Center for Advancing Translational Sciences (NCATS), 2012).
Screen size: about 340,000 compounds; about 6,200 (1.8%) were called active. This list was built around the results that the source calls inconclusive (neither active nor inactive); the mix of calls is not that of the screen. Calls come from the whole dose curve; as a rule, active = well fitted activation curve with a large enough effect; inconclusive = small, poorly fitted or top-dose-only effect; inactive = no such curve, though single readings can be large or run the other way. Where the call is inconclusive, the potency comes from a doubtful curve fit.

assay: A quantitative high throughput screen for small molecules that induce DNA re-replication in SW480 colon adenocarcinoma cells.; note: nearly all actives have a fitted effect of over 55% in size; for re-replication activation: % of control where 0% means no effect; conditions: Hoechst DNA content imaging, 48 h; re-replication activation: at 46.1 µM (top of the series) unless noted
Procedure, shortened: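 Readout is total intensity of Hoechst-stained nuclei, excited at 405 nm and collected at 500-530 nm. Compound treatment lasted 48 hr at 37 C in 5% CO2 before staining.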
Potency is the fitted concentration of half-maximal effect.

Structure (SMILES) | Potency | re-replication activation
CCCCOc1ccccc1C(=O)NNC(=S)NC(=O)c1ccccc1[N+](=O)[O-] | inconclusive: 18.4 µM [activator, single point] | –
COc1cc(OC)cc(C(=O)NC(=S)NNC(=O)Cc2cccs2)c1 | – | inactive: -7.19%
COc1ccc(CCNC(=O)c2ccn[nH]2)cc1OC | inconclusive: 23.1 µM [activator, single point] | –
CC(=O)c1ccc(COC(=O)Cc2ccc([N+](=O)[O-])cc2)cc1 | – | inactive: -4.18%
CC1=Nc2ccc(C)cc2/C1=C/c1c(N)n2c(S(=O)(=O)C(C)C)nsc2nc1=O | – | inactive: 13%
CCOCc1c(C(=O)Nc2cc(OCC)c(N3CCOCC3)cc2OCC)oc2ccccc12 | inconclusive: 6.51 µM [activator, single point] | –
Cc1cc(C)n(C(C[N+](=O)[O-])c2ccc(Cl)cc2)n1 (configuration not stated) | inconclusive: 29.1 µM [activator, single point] | –
CC1=NN(c2cccc(C(=O)O)c2)C(=O)/C1=C\C=C/c1ccccc1 | – | inactive: 13.8%
Cc1nc(NC(=O)c2ccco2)sc1-c1csc(Nc2ccc(Cl)cc2Cl)n1 | inconclusive: 29.1 µM [activator, single point] | –
S=c1[nH]c(-c2ccccc2)cn1/N=C/c1cccc2ccccc12 | inconclusive: 29.1 µM [activator, single point] | –
Nc1c(N(CCC2=CCCCC2)C(=O)COc2ccc(F)cc2Cl)c(=O)[nH]c(=O)n1Cc1ccccc1 | – | inactive: 0.357%
COc1cc2c(cc1OC)CN(C(=O)c1cccc(S(=O)(=O)N3CCc4ccccc43)c1)CC2 | – | inactive: 25.4%
Cc1ccc(S(=O)(=O)N2CCCCC2)cc1NC(=O)CCNC(=O)c1ccccc1 | – | inactive: 17%
CC1CCC(C(C)C)C(OC(=O)CSc2nnc(N)s2)C1 (configuration not stated) | – | inactive: 13.2%
Cc1ccc(C(C(=O)NC2CCCC2)N(Cc2ccc(F)cc2)C(=O)c2snc(C(N)=O)c2N)o1 (configuration not stated) | inconclusive: 23.1 µM [activator, single point] | –
O=C(Cn1cnc([N+](=O)[O-])c1)Nc1cc(Oc2ccc(Cl)cc2Cl)cc([N+](=O)[O-])c1 | inconclusive: 18.4 µM [activator, single point] | –
O=C(NCc1ccccc1)N1CCN(c2ccc(Cl)c(Cl)c2)CC1 | inconclusive: 23.1 µM [activator, single point] | –
C=CCC(Nc1ccccc1)C12C=CC(O1)C(C(=O)OC)=C2C(=O)OC (configuration not stated) | inconclusive: 5.8 µM [activator, partial curve, poor fit] | –
COC(=O)C1=CN(Cc2ccccc2)C=C(C(=O)OC)C1c1cc(F)ccc1F | inconclusive: 29.1 µM [activator, single point] | –
CCOc1ccc(S(=O)(=O)NCCC(=O)NCCOc2ccccc2)cc1 | inconclusive: 2.91 µM [activator, partial curve, poor fit] | –
CCn1c(C)nc2cc(C(=O)NNC(=S)Nc3ccc(Cl)cc3)ccc21 | inconclusive: 2.59 µM [activator, partial curve, poor fit] | –
CCN1C(=O)N/C(=C/c2ccc(C)o2)C1=O | inconclusive: 20.6 µM [activator, single point] | –
Cc1cccc(NC(=O)NC2CCCCCCC2)c1C | inconclusive: 29.1 µM [activator, single point] | –

Reprinted from above (5 entries):
Structure (SMILES) | Potency | re-replication activation
Cc1cc(C)n(C(C[N+](=O)[O-])c2ccc(Cl)cc2)n1 (configuration not stated) | inconclusive: 29.1 µM [activator, single point] | –
CC1=NN(c2cccc(C(=O)O)c2)C(=O)/C1=C\C=C/c1ccccc1 | – | inactive: 13.8%
Cc1nc(NC(=O)c2ccco2)sc1-c1csc(Nc2ccc(Cl)cc2Cl)n1 | inconclusive: 29.1 µM [activator, single point] | –
S=c1[nH]c(-c2ccccc2)cn1/N=C/c1cccc2ccccc12 | inconclusive: 29.1 µM [activator, single point] | –
Nc1c(N(CCC2=CCCCC2)C(=O)COc2ccc(F)cc2Cl)c(=O)[nH]c(=O)n1Cc1ccccc1 | – | inactive: 0.357%

More results

Structure (SMILES) | Potency | re-replication activation
O=C1C(=O)N(c2ccccn2)C(c2cccc(F)c2)/C1=C(/O)c1ccccc1 (configuration not stated) | inconclusive: 5.17 µM [activator, full curve, poor fit] | –
CN(C)c1ccc2c(O)cc(=O)n(C)c2c1 | inconclusive: 20.6 µM [activator, single point] | –
N#Cc1c(C(F)(F)F)cc(-c2cccs2)nc1SCC(=O)O | – | inactive: -2.66%
O=C1Nc2ccc(Br)cc2/C1=C/C(=O)c1ccc2c(c1)OCO2 | inconclusive: 29.1 µM [activator, single point] | –
Cc1cc(C)cc(NC(=O)[C@H](Cc2c[nH]c3ccccc23)NC(=O)[C@@H]2Cc3ccccc3CN2)c1 | active: 18.4 µM | –
Cc1ccc(N(CC(=O)NCc2ccco2)C(=O)CCC(=O)Nc2ccccn2)c(C)c1 | – | inactive: 0.668%
COc1ccc(N2CCN(C(=O)c3ccc(CS(=O)c4cccc(C)c4)o3)CC2)cc1 (configuration not stated) | active: 5.8 µM | –
COC(=O)c1ccc(NC(=O)CNC(=O)C2CCCCC2)cc1 | inconclusive: 25.9 µM [activator, partial curve, poor fit] | –
BrC(=C\c1ccccc1)/C=N/Nc1nc(N2CCOCC2)nc(N2CCOCC2)n1 | – | inactive: -13.6%
Cc1cc(=O)oc2cc(OCC(=O)OCC(=O)N3CCC(C)CC3)ccc12 | inconclusive: 2.06 µM [activator, partial curve, poor fit] | –
CCCCn1c(N)c(N(CCC(C)C)C(=O)C2CCCN(C(=O)c3ccc(Cl)cc3)C2)c(=O)[nH]c1=O (configuration not stated) | – | inactive: -33.3%
O=C(CCCC(=O)c1ccccc1)Nc1ccc(F)cc1 | – | inactive: -0.621%
CC(C)(C)C(=O)CN1C2=NCCCN2c2ccccc21 | – | inactive: -3.9%
N=C1C(=O)OCC1c1ccccc1NC(=O)c1ccc(F)cc1 (configuration not stated) | inconclusive: 29.1 µM [activator, single point] | –
CSc1cccc(CN2CCCC(C(=O)Nc3cccc(-n4cccn4)c3)C2)c1 (configuration not stated) | active: 16.4 µM | –
Cc1ccc(C(=O)N2CC=C(c3ccccc3)CC2)o1 | inconclusive: 2.91 µM [activator, full curve, poor fit] | –
Cc1ccc(-c2nnc(NC3CCCCC3)c3ccccc23)cc1S(=O)(=O)N1CCN(C)CC1 | – | inactive: 0.559%
O=C(NCC(c1ccco1)N1CCCCC1)c1cc2c(s1)CCCC2 (configuration not stated) | inconclusive: 14.6 µM [activator, single point] | –
COc1ccc(C(=O)N/N=C/c2c[nH]c3ccccc23)cc1 | inconclusive: 0.58 µM [activator, partial curve, poor fit] | –
Cc1ccc2nc(C)cc(C(=O)NC3CCCCCC3)c2c1 | inconclusive: 0.146 µM [activator, full curve, poor fit] | –
CCN(Cc1ccc(O)cc1)CC1CCCN(CCc2cccc(F)c2)C1 (configuration not stated) | – | inactive: -4.31%
Cc1oc(-c2cccs2)nc1CN1CCN(Cc2ccc(F)c(F)c2)C(CCO)C1 (configuration not stated) | inconclusive: 20.6 µM [activator, single point] | –
CCc1nnc(NC(=O)c2cccc(S(=O)(=O)N(C)c3ccc(OC)cc3)c2)s1 | inconclusive: 6.51 µM [activator, single point] | –

Structure (SMILES) | Potency | re-replication activation
CCCCN=C1NN=C(c2ccc(C)c(C)c2)CS1 | – | inactive: 7.14%
CCCCCCCC(=O)C(C)C(=O)N(C)[C@H](Cc1ccc(OC)cc1)C(=O)N(C)[C@H](C(N)=O)C(C)C (some centres not stated) | inconclusive: 29.1 µM [activator, single point] | –
CCC(Sc1nc(C)cc(C)n1)C(=O)Nc1nccs1 (configuration not stated) | inconclusive: 20.6 µM [activator, single point] | –
COc1cc(/C=C/[N+](=O)[O-])ccc1OC(=O)c1cc2ccccc2oc1=O | – | inactive: 21.4%
CCSC1=NCCN1C(=O)c1ccc(S(=O)(=O)N(C)C)cc1 | – | inactive: -4.71%
CC(=O)N1c2ccc(S(=O)(=O)N3CCCC3C(=O)NCc3ccccc3Cl)cc2CC1C (configuration not stated) | inconclusive: 29.1 µM [activator, single point] | –
COc1ccccc1CNS(=O)(=O)c1cc2c3c(c1)C(C)C(=O)N3CCC2 (configuration not stated) | inconclusive: 0.92 µM [activator, full curve, poor fit] | –
O=C1CC[C@@H]2CC(N3CCN(c4ccccc4)CC3)C[C@@H]3CCN1[C@H]23 (some centres not stated) | inconclusive: 0.116 µM [activator, full curve, poor fit] | –
COc1ccc(S(=O)(=O)N2CCC(C(=O)NCCC(=O)Nc3cccc(Cl)c3)CC2)cc1 | inconclusive: 29.1 µM [activator, single point] | –
CCCC(=O)N1CCN(c2ccc(NC(=O)c3cc4ccccc4o3)cc2)CC1 | – | inactive: -3.81%
O=C(Nc1cccc2ccccc12)N(CCO)C1CCS(=O)(=O)C1 (configuration not stated) | inconclusive: 0.708 µM [activator, full curve, poor fit] | –
Cc1noc(C)c1S(=O)(=O)N1CCC(C(=O)N2CCN(c3ccc(F)cc3)CC2)CC1 | inconclusive: 0.501 µM [activator, partial curve, poor fit] | –
Clc1ccc(-c2noc(CSc3nnc(-c4ccncc4)n3-c3ccccc3)n2)cc1 | inconclusive: 16.4 µM [activator, single point] | –
COC(=O)[C@H](CCSC)NC(=O)Cn1cnc2c(SC)nc(N)nc21 | inconclusive: 0.731 µM [activator, full curve, poor fit] | –
COc1cc(/C=N/Nc2nc(C)cc(C)n2)ccc1OC(=O)c1ccco1 | – | inactive: -1.06%
O=C1/C(=C\c2ccc(O)cc2)SC(=S)N1Cc1ccccc1 | inconclusive: 32.6 µM [activator, partial curve, poor fit] | –
COc1cc2nc(C3CCC3)nc(N3CCN(c4ccccc4OC)CC3)c2cc1OC | inconclusive: 18.4 µM [activator, partial curve, poor fit] | –
Cc1ccccc1N1C(=O)CC(N2CCN(C(=O)c3ccco3)CC2)C1=O (configuration not stated) | inconclusive: 29.1 µM [activator, single point] | –
O=C(COc1ccc2ccc(=O)oc2c1)Nc1nccs1 | inconclusive: 29.1 µM [activator, single point] | –
CCOC(=O)C1=C(C)N(Cc2ccccc2)C(=O)NC1c1ccccc1OS(=O)(=O)c1ccccc1[N+](=O)[O-] (configuration not stated) | inconclusive: 20.6 µM [activator, partial curve, poor fit] | –
CN(C)N1C(N)=C(C#N)C(c2cccc3ccccc23)C2=C1CC(c1ccccc1)CC2=O (configuration not stated) | inconclusive: 20.6 µM [activator, single point] | –
